Measured values from PMC7694386.
These are yes or no findings as the source states them, for the method shown. In cells and extracts the contact can be indirect. Here binding means that the protein was enriched with, or labelled near, the bait; the list need not be complete. Sequences can lack the tags named with a protein.

Chains of the proteins cited; added tags and fusions are not shown.
UniProt O95817: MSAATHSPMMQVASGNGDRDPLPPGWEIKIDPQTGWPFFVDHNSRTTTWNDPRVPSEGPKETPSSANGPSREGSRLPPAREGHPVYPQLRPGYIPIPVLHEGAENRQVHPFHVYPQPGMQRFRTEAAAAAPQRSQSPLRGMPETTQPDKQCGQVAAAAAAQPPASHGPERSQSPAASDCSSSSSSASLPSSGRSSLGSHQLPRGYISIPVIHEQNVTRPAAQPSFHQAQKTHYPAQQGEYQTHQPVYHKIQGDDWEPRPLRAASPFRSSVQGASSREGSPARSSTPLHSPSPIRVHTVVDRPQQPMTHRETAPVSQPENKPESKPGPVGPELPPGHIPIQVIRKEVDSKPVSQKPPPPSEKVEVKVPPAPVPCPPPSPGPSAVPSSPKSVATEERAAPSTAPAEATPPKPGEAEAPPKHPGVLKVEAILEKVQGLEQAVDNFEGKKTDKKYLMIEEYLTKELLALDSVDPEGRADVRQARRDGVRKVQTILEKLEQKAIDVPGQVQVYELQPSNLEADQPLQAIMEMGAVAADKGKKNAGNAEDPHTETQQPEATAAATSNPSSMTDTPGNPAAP

B1: GAPVD1 (protein, UniProt Q14C86 1-1478)
chain: MVKLDIHTLAHHLKQERLYVNSEKQLIQRLNADVLKTAEKLYRTAWIAKQQRINLDRLIITSAEASPAECCQHAKILEDTQFVDGYKQLGFQETAYGEFLSRLRENPRLIASSLVAGEKLNQENTQSVIYTVFTSLYGNCIMQEDESYLLQVLRYLIEFELKESDNPRRLLRRGTCAFSILFKLFSEGLFSAKLFLTATLHEPIMQLLVEDEDHLETDPNKLIERFSPSQQEKLFGEKGSDRFRQKVQEMVESNEAKLVALVNKFIGYLKQNTYCFPHSLRWIVSQMYKTLSCVDRLEVGEVRAMCTDLLLACFICPAVVNPEQYGIISDAPINEVARFNLMQVGRLLQQLAMTGSEEGDPRTKSSLGKFDKSCVAAFLDVVIGGRAVETPPLSSVNLLEGLSRTVVYITYSQLITLVNFMKSVMSGDQLREDRMALDNLLANLPPAKPGKSSSLEMTPYNTPQLSPATTPANKKNRLPIATRSRSRTNMLMDLHMDHEGSSQETIQEVQPEEVLVISLGTGPQLTPGMMSENEVLNMQLSDGGQGDVPVDENKLHGKPDKTLRFSLCSDNLEGISEGPSNRSNSVSSLDLEGESVSELGAGPSGSNGVEALQLLEHEQATTQDNLDDKLRKFEIRDMMGLTDDRDISETVSETWSTDVLGSDFDPNIDEDRLQEIAGAAAENMLGSLLCLPGSGSVLLDPCTGSTISETTSEAWSVEVLPSDSEAPDLKQEERLQELESCSGLGSTSDDTDVREVSSRPSTPGLSVVSGISATSEDIPNKIEDLRSECSSDFGGKDSVTSPDMDEITHGAHQLTSPPSQSESLLAMFDPLSSHEGASAVVRPKVHYARPSHPPPDPPILEGAVGGNEARLPNFGSHVLTPAEMEAFKQRHSYPERLVRSRSSDIVSSVRRPMSDPSWNRRPGNEERELPPAAAIGATSLVAAPHSSSSSPSKDSSRGETEERKDSDDEKSDRNRPWWRKRFVSAMPKAPIPFRKKEKQEKDKDDLGPDRFSTLTDDPSPRLSAQAQVAEDILDKYRNAIKRTSPSDGAMANYESTGDNHDRDLSSKLLYHSDKEVMGDGESAHDSPRDEALQNISADDLPDSASQAAHPQDSAFSYRDAKKKLRLALCSADSVAFPVLTHSTRNGLPDHTDPEDNEIVCFLKVQIAEAINLQDKNLMAQLQETMRCVCRFDNRTCRKLLASIAEDYRKRAPYIAYLTRCRQGLQTTQAHLERLLQRVLRDKEVANRYFTTVCVRLLLESKEKKIREFIQDFQKLTAADDKTAQVEDFLQFLYGAMAQDVIWQNASEEQLQDAQLAIERSVMNRIFKLAFYPNQDGDILRDQVLHEHIQRLSKVVTANHRALQIPEVYLREAPWPSAQSEIRTISAYKTPRDKVQCILRMCSTIMNLLSLANEDSVPGADDFVPVLVFVLIKANPPCLLSTVQYISSFYASCLSGEESYWWMQFTAAVEFIKTIDDRK
B2: Histone deacetylase complex subunit SAP130 (protein, UniProt Q9H0E3 1-1048)
chain: MGPPRHPQAGEIEAGGAGGGRRLQVEMSSQQFPRLGAPSTGLSQAPSQIANSGSAGLINPAATVNDESGRDSEVSAREHMSSSSSLQSREEKQEPVVVRPYPQVQMLSTHHAVASATPVAVTAPPAHLTPAVPLSFSEGLMKPPPKPTMPSRPIAPAPPSTLSLPPKVPGQVTVTMESSIPQASAIPVATISGQQGHPSNLHHIMTTNVQMSIIRSNAPGPPLHIGASHLPRGAAAAAVMSSSKVTTVLRPTSQLPNAATAQPAVQHIIHQPIQSRPPVTTSNAIPPAVVATVSATRAQSPVITTTAAHATDSALSRPTLSIQHPPSAAISIQRPAQSRDVTTRITLPSHPALGTPKQQLHTMAQKTIFSTGTPVAAATVAPILATNTIPSATTAGSVSHTQAPTSTIVTMTVPSHSSHATAVTTSNIPVAKVVPQQITHTSPRIQPDYPAERSSLIPISGHRASPNPVAMETRSDNRPSVPVQFQYFLPTYPPSAYPLAAHTYTPITSSVSTIRQYPVSAQAPNSAITAQTGVGVASTVHLNPMQLMTVDASHARHIQGIQPAPISTQGIQPAPIGTPGIQPAPLGTQGIHSATPINTQGLQPAPMGTQQPQPEGKTSAVVLADGATIVANPISNPFSAAPAATTVVQTHSQSASTNAPAQGSSPRPSILRKKPATDGAKPKSEIHVSMATPVTVSMETVSNQNNDQPTIAVPPTAQQPPPTIPTMIAAASPPSQPAVALSTIPGAVPITPPITTIAAAPPPSVTVGGSLSSVLGPPVPEIKVKEEVEPMDIMRPVSAVPPLATNTVSPSLALLANNLSMPTSDLPPGASPRKKPRKQQHVISTEEGDMMETNSTDDEKSTAKSLLVKAEKRKSPPKEYIDEEGVRYVPVRPRPPITLLRHYRNPWKAAYHHFQRYSDVRVKEEKKAMLQEIANQKGVSCRAQGWKVHLCAAQLLQLTNLEHDVYERLTNLQEGIIPKKKAATDDDLHRINELIQGNMQRCKLVMDQISEARDSMLKVLDHKDRVLKLLNKNGTVKKVSKLKRKEKV
B3: TSC1 (hamartin) (protein, UniProt Q92574 1-1164)
chain: MAQQANVGELLAMLDSPMLGVRDDVTAVFKENLNSDRGPMLVNTLVDYYLETSSQPALHILTTLQEPHDKHLLDRINEYVGKAATRLSILSLLGHVIRLQPSWKHKLSQAPLLPSLLKCLKMDTDVVVLTTGVLVLITMLPMIPQSGKQHLLDFFDIFGRLSSWCLKKPGHVAEVYLVHLHASVYALFHRLYGMYPCNFVSFLRSHYSMKENLETFEEVVKPMMEHVRIHPELVTGSKDHELDPRRWKRLETHDVVIECAKISLDPTEASYEDGYSVSHQISARFPHRSADVTTSPYADTQNSYGCATSTPYSTSRLMLLNMPGQLPQTLSSPSTRLITEPPQATLWSPSMVCGMTTPPTSPGNVPPDLSHPYSKVFGTTAGGKGTPLGTPATSPPPAPLCHSDDYVHISLPQATVTPPRKEERMDSARPCLHRQHHLLNDRGSEEPPGSKGSVTLSDLPGFLGDLASEEDSIEKDKEEAAISRELSEITTAEAEPVVPRGGFDSPFYRDSLPGSQRKTHSAASSSQGASVNPEPLHSSLDKLGPDTPKQAFTPIDLPCGSADESPAGDRECQTSLETSIFTPSPCKIPPPTRVGFGSGQPPPYDHLFEVALPKTAHHFVIRKTEELLKKAKGNTEEDGVPSTSPMEVLDRLIQQGADAHSKELNKLPLPSKSVDWTHFGGSPPSDEIRTLRDQLLLLHNQLLYERFKRQQHALRNRRLLRKVIKAAALEEHNAAMKDQLKLQEKDIQMWKVSLQKEQARYNQLQEQRDTMVTKLHSQIRQLQHDREEFYNQSQELQTKLEDCRNMIAELRIELKKANNKVCHTELLLSQVSQKLSNSESVQQQMEFLNRQLLVLGEVNELYLEQLQNKHSDTTKEVEMMKAAYRKELEKNRSHVLQQTQRLDTSQKRILELESHLAKKDHLLLEQKKYLEDVKLQARGQLQAAESRYEAQKRITQVFELEILDLYGRLEKDGLLKKLEEEKAEAAEAAEERLDCCNDGCSDSMVGHNEEASGHNGETKTPRPSSARGSSGSRGGGGSSSSSSELSTPEKPPHQRAGPFSSRWETTMGEASASIPTTVGSLPSSKSFLGMKARELFRNKSESQCDEDGMTSSLSESLKTELGKDLGVEAKIPLNLDGPHPSPPTPDSVGQLHIMDYNETHHEHS
B4: splicing factor RBM22 (protein, UniProt Q9NW64 1-420)
chain: MATSLGSNTYNRQNWEDADFPILCQTCLGENPYIRMTKEKYGKECKICARPFTVFRWCPGVRMRFKKTEVCQTCSKLKNVCQTCLLDLEYGLPIQVRDAGLSFKDDMPKSDVNKEYYTQNMEREISNSDGTRPVGMLGKATSTSDMLLKLARTTPYYKRNRPHICSFWVKGECKRGEECPYRHEKPTDPDDPLADQNIKDRYYGINDPVADKLLKRASTMPRLDPPEDKTITTLYVGGLGDTITETDLRNHFYQFGEIRTITVVQRQQCAFIQFATRQAAEVAAEKSFNKLIVNGRRLNVKWGRSQAARGKEKEKDGTTDSGIKLEPVPGLPGALPPPPAAEEEASANYFNLPPSGPPAVVNIALPPPPGIAPPPPPGFGPHMFHPMGPPPPFMRAPGPIHYPSQDPQRMGAHAGKHSSP
B5: VARS (protein, UniProt P26640 1-1264)
chain: MSTLYVSPHPDAFPSLRALIAARYGEAGEGPGWGGAHPRICLQPPPTSRTPFPPPRLPALEQGPGGLWVWGATAVAQLLWPAGLGGPGGSRAAVLVQQWVSYADTELIPAACGATLPALGLRSSAQDPQAVLGALGRALSPLEEWLRLHTYLAGEAPTLADLAAVTALLLPFRYVLDPPARRIWNNVTRWFVTCVRQPEFRAVLGEVVLYSGARPLSHQPGPEAPALPKTAAQLKKEAKKREKLEKFQQKQKIQQQQPPPGEKKPKPEKREKRDPGVITYDLPTPPGEKKDVSGPMPDSYSPRYVEAAWYPWWEQQGFFKPEYGRPNVSAANPRGVFMMCIPPPNVTGSLHLGHALTNAIQDSLTRWHRMRGETTLWNPGCDHAGIATQVVVEKKLWREQGLSRHQLGREAFLQEVWKWKEEKGDRIYHQLKKLGSSLDWDRACFTMDPKLSAAVTEAFVRLHEEGIIYRSTRLVNWSCTLNSAISDIEVDKKELTGRTLLSVPGYKEKVEFGVLVSFAYKVQGSDSDEEVVVATTRIETMLGDVAVAVHPKDTRYQHLKGKNVIHPFLSRSLPIVFDEFVDMDFGTGAVKITPAHDQNDYEVGQRHGLEAISIMDSRGALINVPPPFLGLPRFEARKAVLVALKERGLFRGIEDNPMVVPLCNRSKDVVEPLLRPQWYVRCGEMAQAASAAVTRGDLRILPEAHQRTWHAWMDNIREWCISRQLWWGHRIPAYFVTVSDPAVPPGEDPDGRYWVSGRNEAEAREKAAKEFGVSPDKISLQQDEDVLDTWFSSGLFPLSILGWPNQSEDLSVFYPGTLLETGHDILFFWVARMVMLGLKLTGRLPFREVYLHAIVRDAHGRKMSKSLGNVIDPLDVIYGISLQGLHNQLLNSNLDPSEVEKAKEGQKADFPAGIPECGTDALRFGLCAYMSQGRDINLDVNRILGYRHFCNKLWNATKFALRGLGKGFVPSPTSQPGGHESLVDRWIRSRLTEAVRLSNQGFQAYDFPAVTTAQYSFWLYELCDVYLECLKPVLNGVDQVAAECARQTLYTCLDVGLRLLSPFMPFVTEELFQRLPRRMPQAPPSLCVTPYPEPSECSWKDPEAEAALELALSITRAVRSLRADYNLTRIRPDCFLEVADEATGALASAVSGYVQALASAGVVAVLALGAPAPQGCAVALASDRCSIHLQLQGLVDPARELGKLQAKRVEAQRQAQRLRERRAASGYPVKVPLEVQEADEAKLQQTEAELRKVDEAIALFQKML
B6: DKC1 (protein, UniProt O60832 1-514)
chain: MADAEVIILPKKHKKKKERKSLPEEDVAEIQHAEEFLIKPESKVAKLDTSQWPLLLKNFDKLNVRTTHYTPLACGSNPLKREIGDYIRTGFINLDKPSNPSSHEVVAWIRRILRVEKTGHSGTLDPKVTGCLIVCIERATRLVKSQQSAGKEYVGIVRLHNAIEGGTQLSRALETLTGALFQRPPLIAAVKRQLRVRTIYESKMIEYDPERRLGIFWVSCEAGTYIRTLCVHLGLLLGVGGQMQELRRVRSGVMSEKDHMVTMHDVLDAQWLYDNHKDESYLRRVVYPLEKLLTSHKRLVMKDSAVNAICYGAKIMLPGVLRYEDGIEVNQEIVVITTKGEAICMAIALMTTAVISTCDHGIVAKIKRVIMERDTYPRKWGLGPKASQKKLMIKQGLLDKHGKPTDSTPATWKQEYVDYSESAKKEVVAEVVKAPQVVAEAAKTAKRKRESESESDETPPAAPQLIKKEKKKSKKDKKAKAGLESGAEPGDGDSDTTKKKKKKKKAKEVELVSE

These binders were tested against BAG3 (BCL-2-associated athanogene 3) (human (endogenous in HEK293T)) (UniProt O95817) (assay: affinity purification with mass spectrometry; endogenous BAG3 immunoprecipitated with anti-BAG3 antibody and Protein A/G magnetic beads from HEK293T lysate; cells treated with DMSO (basal) or 10 µM MG132 for 6 h; IgG IP (MG132_IgG) as control; label-free quantification, three biological replicates).

binding, binds:
B1
B2
B3
B4
B5
B6
